Experimental findings from the supplement of paper PMC4862054 are described below.

Small differences around the control level are noise.

What all share (experiment): normalised response (% of control), CellTox Green; higher = less cell death (100 = DMSO, 0 = benzethonium chloride kill control)
Conditions in all cases: incubation time: 72 h

One assay has as its system HCC1599. The procedure:
(§1)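 DSRT, 72 h incubation, CellTox Green / CellTiter-Glo readout. Signal is normalised to DMSO and benzethonium chloride controls. Value is the normalised response at the lowest tested concentration.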

Another assay concerns CAL-148. The procedure:
as §1

The next assay deals with MFM-223. The procedure: as §1
The subject of the next assay is Hs578T. The procedure:
as §1

In a further assay the test system is CAL-85-1. The procedure: as §1
For a further assay, the system named is HCC1143. The procedure: as §1
The subject of the next assay is BT-474. The procedure:
as §1

The next assay has as its system HCC1937. The procedure:
as §1

A further assay concerns MDA-MB-231. The procedure:
as §1

A further assay concerns CAL-120. The procedure:
as §1

The next assay deals with HDQ-P1. The procedure:
as §1

For the next assay, the system named is BT-549. The procedure: as §1
A further assay relates to CAL-51. The procedure: as §1
Another assay concerns DU-4475. The procedure: as §1
In a further assay the test system is MDA-MB-453. The procedure:
as §1

For another assay, the system named is MCF-10A. The procedure:
as §1

Another assay concerns MDA-MB-468. The procedure:
as §1

In the next assay the test system is MDA-MB-436. The procedure:
as §1

As to `Cc1cc(Nc2nc(N[C@@H](C)c3ncc(F)cn3)ncc2Cl)[nH]n1` [AZD1480] (0.1 nM), the normalised response in the assay on HCC1599 was determined as 99.7%; in the assay on CAL-148 it was 100%; with MFM-223, 104%; in the assay with Hs578T, 94.4%; in the assay on CAL-85-1, 99%; in the assay with HCC1143 it was 124%. Also, the normalised response in the assay on BT-474 amounted to 76.8%; in the assay on HCC1937, 95.6%; in the assay with MDA-MB-231, 82.5%; in the assay on CAL-120, 96.3%; in the assay with HDQ-P1, 99.4%; in the assay with BT-549, 107%. The normalised response is 108% with CAL-51; 95.4% with DU-4475; 101% with MDA-MB-453; 104% with MCF-10A; 108% in the assay with MDA-MB-468.

On to `CCC1(c2ccc(N)cc2)CCC(=O)NC1=O` (stereo not given) [Aminoglutethimide] (1 nM), for which the normalised response in the assay on HCC1599 is 103%; with CAL-148, 86.5%; with MFM-223, 102%; in the assay on Hs578T it was 105%; in the assay on CAL-85-1, 104%; with BT-474, 101%. Besides, the normalised response in the assay on HCC1937 stood at 76.4%; in the assay on MDA-MB-231, 101%; in the assay on CAL-120, 94.7%; with HDQ-P1 it was 102%; with BT-549, 106%; in the assay with CAL-51 it was 123%. For the same compound, the normalised response was found to be 99.6% in the assay on DU-4475, 92.9% in the assay on MDA-MB-453, 107% with MCF-10A and 106% in the assay with MDA-MB-468.

`CCC/C=C/C=C/C(=O)O[C@H]1/C(=C/C(=O)OC)C[C@H]2C[C@H]([C@@H](C)O)OC(=O)C[C@H](O)C[C@@H]3C[C@H](OC(C)=O)C(C)(C)[C@](O)(C[C@@H]4C/C(=C/C(=O)OC)C[C@H](/C=C/C(C)(C)[C@]1(O)O2)O4)O3` [Bryostatin 1] (0.01 nM): the normalised response with HCC1599 came to 109%; in the assay with CAL-148, 107%; in the assay on MFM-223, 104%; in the assay on Hs578T, 89.5%; in the assay on CAL-85-1, 109%; in the assay on HCC1143 it was 119%. The normalised response stood at 107% with BT-474; 104% in the assay with HCC1937; 100% with MDA-MB-231; 101% in the assay on CAL-120; 89.7% in the assay with HDQ-P1; 95.7% in the assay with BT-549. Moreover, the normalised response with CAL-51 stood at 123%; in the assay with DU-4475, 105%; in the assay on MDA-MB-453, 110%; with MCF-10A it was 89.2%; with MDA-MB-468, 90.7%.

Take `CS(=O)(=O)OCCCCOS(C)(=O)=O` [Busulfan] (10 nM): the normalised response in the assay on HCC1599 was determined as 107%; with CAL-148 it was 100%; with MFM-223, 61.8%; in the assay with Hs578T, 104%; in the assay on CAL-85-1, 92.2%; in the assay with MDA-MB-436, 97.4%. Besides, the normalised response with BT-474 worked out at 102%; in the assay with MDA-MB-231, 107%; in the assay with CAL-120, 98.5%; in the assay with HDQ-P1, 60.3%; in the assay on BT-549, 100%; in the assay with CAL-51, 87%. Also, the normalised response with DU-4475 was determined as 103%; with MDA-MB-453, 105%; in the assay with MCF-10A, 81.4%; in the assay with MDA-MB-468, 72.6%.

Take `Cc1nc(C(=O)NCC(=O)O)c(O)c2ccc(Oc3ccccc3)cc12` [FG-4592] (1 nM): the normalised response with HCC1599 was found to be 111%; with CAL-148 it was 102%; in the assay on MFM-223 it was 104%; in the assay on CAL-85-1 it was 103%; with MDA-MB-436, 100%; in the assay with HCC1143, 121%. Moreover, the normalised response was found to be 103% in the assay with BT-474; 90.8% in the assay with HCC1937; 119% in the assay on MDA-MB-231; 106% with CAL-120; 100% with HDQ-P1; 89.2% in the assay with BT-549. The normalised response with CAL-51 stood at 99.3%; in the assay on DU-4475, 105%; in the assay on MDA-MB-453, 112%; in the assay on MCF-10A it was 104%; in the assay with MDA-MB-468, 110%.

As to `O=C(Cc1ccc(-c2ccc(OCCN3CCOCC3)cc2)cn1)NCc1ccccc1` [KX2-391] (1 nM), the normalised response in the assay with HCC1599 was found to be 115%; with CAL-148, 104%; in the assay with MFM-223, 92.6%; in the assay with Hs578T, 97.8%; in the assay on CAL-85-1, 97.5%; in the assay on MDA-MB-436, 98.4%. Besides, the normalised response stood at 123% in the assay on HCC1143; 99.1% with BT-474; 92.5% in the assay with HCC1937; 99.2% with CAL-120; 98.9% with HDQ-P1; 93.4% in the assay on BT-549. Further, the normalised response in the assay on CAL-51 is 119%; in the assay with DU-4475, 105%; in the assay with MDA-MB-453, 108%; with MDA-MB-468, 81.5%.

In the case of `O=C(O)C(=O)O.[NH-][C@@H]1CCCC[C@H]1[NH-].[Pt+2]` [Oxaliplatin] (1 nM), the normalised response in the assay with HCC1599 is 100%; in the assay with CAL-148, 97.7%; with MFM-223, 105%; in the assay with Hs578T, 71%; in the assay with CAL-85-1, 105%; in the assay on MDA-MB-436, 83.4%. Also, the normalised response with HCC1143 is 105%; with BT-474 it was 98.1%; in the assay on MDA-MB-231, 98.6%; in the assay with CAL-120 it was 93%; in the assay on HDQ-P1 it was 70.2%; in the assay on BT-549, 89.9%. Also, the normalised response stood at 105% in the assay with CAL-51; 98% in the assay with DU-4475; 94.1% in the assay with MDA-MB-453; 87.6% in the assay on MCF-10A; 106% in the assay with MDA-MB-468.

As to `COc1cc(Nc2ncc(F)c(Nc3ccc4c(n3)NC(=O)C(C)(C)O4)n2)cc(OC)c1OC` [Tamatinib] (1 nM), the normalised response in the assay on HCC1599 came to 108%; in the assay on CAL-148, 107%; in the assay on MFM-223, 102%; with Hs578T it was 101%; with CAL-85-1, 98.2%; in the assay with HCC1143 it was 117%. Further, the normalised response in the assay on BT-474 amounted to 99.4%; in the assay with HCC1937, 106%; with MDA-MB-231, 77.7%; with CAL-120 it was 101%; in the assay with HDQ-P1, 95.9%; with BT-549, 91.8%. The normalised response in the assay on CAL-51 stood at 121%; in the assay with DU-4475 it was 106%; in the assay on MDA-MB-453, 97.9%; in the assay on MCF-10A it was 106%; in the assay with MDA-MB-468, 97.1%.

Take `O=C1CCC(N2C(=O)c3ccccc3C2=O)C(=O)N1` (stereo not given) [Thalidomide] (1 nM): the normalised response in the assay with HCC1599 was found to be 103%; with CAL-148 it was 103%; in the assay on MFM-223, 98.3%; in the assay with Hs578T it was 97.7%; with CAL-85-1, 101%; in the assay on MDA-MB-436, 94.2%. Moreover, the normalised response with HCC1143 worked out at 122%; in the assay with BT-474, 96.2%; with HCC1937, 98.8%; with CAL-120 it was 103%; with HDQ-P1, 94%; in the assay with BT-549, 105%. In addition, the normalised response is 87% in the assay with CAL-51; 101% with DU-4475; 102% with MDA-MB-453; 97% in the assay on MCF-10A; 104% in the assay with MDA-MB-468.
